Test results reported in paper PMC12079886.
These are yes or no findings as the source states them, for the method shown. In cells and extracts the contact can be indirect. Some binding calls cover weakened binding; strength is not graded here.

By UniProt entry, the sequences of proteins in these tests, tags left out. Where a name states a change or a piece, a line headed by the entry shows the natural chain unless it says otherwise.
UniProt Q99104: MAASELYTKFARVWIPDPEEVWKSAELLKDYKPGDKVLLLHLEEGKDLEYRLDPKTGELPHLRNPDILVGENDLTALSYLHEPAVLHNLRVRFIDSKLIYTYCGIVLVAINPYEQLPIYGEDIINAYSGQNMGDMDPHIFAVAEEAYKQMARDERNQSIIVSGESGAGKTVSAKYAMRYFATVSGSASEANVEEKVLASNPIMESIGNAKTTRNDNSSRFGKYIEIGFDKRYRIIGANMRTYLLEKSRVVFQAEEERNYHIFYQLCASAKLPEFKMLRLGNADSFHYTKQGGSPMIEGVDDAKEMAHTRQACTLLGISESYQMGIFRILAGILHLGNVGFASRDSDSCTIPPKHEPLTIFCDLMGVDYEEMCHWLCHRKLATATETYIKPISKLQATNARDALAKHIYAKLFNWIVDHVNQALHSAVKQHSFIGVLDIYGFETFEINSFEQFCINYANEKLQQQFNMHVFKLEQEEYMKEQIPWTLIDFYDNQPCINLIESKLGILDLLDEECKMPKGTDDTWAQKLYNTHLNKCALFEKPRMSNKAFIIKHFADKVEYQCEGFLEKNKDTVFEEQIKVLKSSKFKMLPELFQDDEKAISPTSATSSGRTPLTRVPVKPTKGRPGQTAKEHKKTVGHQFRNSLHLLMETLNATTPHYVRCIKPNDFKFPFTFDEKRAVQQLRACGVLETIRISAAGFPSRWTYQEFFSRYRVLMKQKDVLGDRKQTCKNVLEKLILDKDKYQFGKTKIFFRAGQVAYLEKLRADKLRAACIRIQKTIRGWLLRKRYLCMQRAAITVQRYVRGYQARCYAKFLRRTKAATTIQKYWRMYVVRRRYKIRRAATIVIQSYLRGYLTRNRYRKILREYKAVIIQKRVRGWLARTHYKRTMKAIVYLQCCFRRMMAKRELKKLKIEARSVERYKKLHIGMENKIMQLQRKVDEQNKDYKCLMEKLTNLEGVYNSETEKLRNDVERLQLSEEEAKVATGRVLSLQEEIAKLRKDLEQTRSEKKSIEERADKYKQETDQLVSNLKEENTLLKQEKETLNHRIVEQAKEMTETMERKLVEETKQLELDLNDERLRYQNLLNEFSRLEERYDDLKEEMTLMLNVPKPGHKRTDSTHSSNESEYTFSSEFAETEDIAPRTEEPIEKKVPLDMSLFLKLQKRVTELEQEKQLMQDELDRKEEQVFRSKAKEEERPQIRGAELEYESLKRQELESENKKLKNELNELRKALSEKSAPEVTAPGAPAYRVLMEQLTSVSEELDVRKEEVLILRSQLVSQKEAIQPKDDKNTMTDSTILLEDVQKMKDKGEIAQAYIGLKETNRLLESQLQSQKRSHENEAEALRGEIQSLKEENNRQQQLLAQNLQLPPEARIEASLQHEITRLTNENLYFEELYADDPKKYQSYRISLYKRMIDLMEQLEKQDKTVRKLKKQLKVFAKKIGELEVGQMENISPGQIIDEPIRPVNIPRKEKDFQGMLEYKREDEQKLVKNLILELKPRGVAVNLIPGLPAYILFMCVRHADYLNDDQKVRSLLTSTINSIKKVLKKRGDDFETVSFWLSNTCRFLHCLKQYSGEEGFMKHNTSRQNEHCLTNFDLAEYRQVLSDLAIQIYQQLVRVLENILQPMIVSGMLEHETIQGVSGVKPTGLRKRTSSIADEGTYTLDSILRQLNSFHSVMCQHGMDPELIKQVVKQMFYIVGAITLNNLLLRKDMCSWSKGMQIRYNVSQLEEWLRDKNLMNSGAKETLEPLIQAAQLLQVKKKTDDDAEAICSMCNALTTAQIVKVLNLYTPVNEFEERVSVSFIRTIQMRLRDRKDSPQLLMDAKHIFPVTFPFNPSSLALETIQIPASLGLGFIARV
UniProt Q9Z1S5: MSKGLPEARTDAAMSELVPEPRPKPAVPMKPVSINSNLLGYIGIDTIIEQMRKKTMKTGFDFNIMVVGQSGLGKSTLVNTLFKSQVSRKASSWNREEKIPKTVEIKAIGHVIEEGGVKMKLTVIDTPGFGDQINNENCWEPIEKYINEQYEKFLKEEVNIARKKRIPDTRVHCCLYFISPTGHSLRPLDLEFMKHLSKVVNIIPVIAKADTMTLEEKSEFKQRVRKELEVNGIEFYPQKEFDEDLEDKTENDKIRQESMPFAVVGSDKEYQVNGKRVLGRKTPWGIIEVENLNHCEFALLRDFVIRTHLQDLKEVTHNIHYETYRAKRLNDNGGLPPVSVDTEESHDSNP

Target: myosin-Va (MYO5A) (UniProt Q99104)
Experiment: co-IP; cell lysate co-expressing MYO5A and SEPT3-WT or T211E; which protein was precipitated is not told in the main text

With “septin 3 phosphomimetic mutant T211E (SEPT3-T211E) (from UniProt Q9Z1S5 1-350)” the binding was “binds”.
